Here are results for one substance from PMC2729930.

The chains behind the UniProt entries cited, without tags or fusion partners. Residues count along the entry.
UniProt P11021, residues 148-654: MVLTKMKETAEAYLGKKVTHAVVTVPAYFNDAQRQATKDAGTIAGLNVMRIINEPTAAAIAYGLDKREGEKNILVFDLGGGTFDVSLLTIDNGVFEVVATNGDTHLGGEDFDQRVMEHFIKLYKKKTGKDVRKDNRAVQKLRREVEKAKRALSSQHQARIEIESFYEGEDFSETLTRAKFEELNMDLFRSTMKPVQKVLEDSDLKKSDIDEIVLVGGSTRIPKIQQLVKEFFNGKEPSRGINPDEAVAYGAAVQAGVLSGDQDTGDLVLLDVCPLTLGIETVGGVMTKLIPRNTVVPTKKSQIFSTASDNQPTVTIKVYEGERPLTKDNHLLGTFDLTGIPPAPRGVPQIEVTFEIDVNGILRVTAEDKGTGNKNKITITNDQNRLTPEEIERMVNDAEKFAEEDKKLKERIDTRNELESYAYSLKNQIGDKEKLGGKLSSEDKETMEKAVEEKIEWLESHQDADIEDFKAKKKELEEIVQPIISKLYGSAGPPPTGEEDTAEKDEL

These are yes or no findings as the source states them, for the method shown. In cells and extracts the contact can be indirect. Some binding calls cover weakened binding; strength is not graded here. Sequences can lack the tags named with a protein.

In assay [1] the target is T1, FLAG-P58^IPK (UniProt Q13217).
T1 sequence: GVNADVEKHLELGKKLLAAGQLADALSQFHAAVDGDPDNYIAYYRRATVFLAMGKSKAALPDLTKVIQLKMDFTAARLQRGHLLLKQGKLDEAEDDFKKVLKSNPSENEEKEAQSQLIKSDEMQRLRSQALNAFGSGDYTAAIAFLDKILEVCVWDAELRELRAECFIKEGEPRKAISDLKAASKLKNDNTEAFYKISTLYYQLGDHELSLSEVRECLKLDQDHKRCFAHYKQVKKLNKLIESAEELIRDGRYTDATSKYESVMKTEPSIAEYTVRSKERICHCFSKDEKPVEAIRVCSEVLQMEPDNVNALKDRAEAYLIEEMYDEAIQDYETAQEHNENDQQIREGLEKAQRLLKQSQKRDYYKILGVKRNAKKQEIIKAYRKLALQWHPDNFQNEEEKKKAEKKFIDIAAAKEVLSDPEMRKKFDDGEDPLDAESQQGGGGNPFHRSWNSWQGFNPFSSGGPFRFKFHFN
As to the kind of experiment: co-IP; lysates of co-transfected 293T cells; immunoprecipitation with anti-FLAG antibody or control mouse IgG, then Western blot; cells non-treated or treated with Tg (300 nM) for 16 hours. (In general: Immunoblotting shows a protein as a band on a membrane.)

Assay [2] addresses T2, P58^IPK-FLAG (UniProt Q13217).
T2 sequence: T1 sequence
The description is as above.

“HA-GRP78va (from UniProt P11021 148-654)”: the binding result in assay [1] and in assay [2] was “binds” each time.
